# Data reported in the supplement of paper PMC10032668.
# By UniProt entry, the sequences of proteins in these tests, tags left out.
# NUTF2, P61970, UniProt P61970, whole entry: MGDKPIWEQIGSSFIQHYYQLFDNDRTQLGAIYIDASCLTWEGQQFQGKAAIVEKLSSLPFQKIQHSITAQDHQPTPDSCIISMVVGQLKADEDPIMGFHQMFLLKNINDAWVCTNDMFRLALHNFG
# H2AFY, O75367, UniProt O75367, whole entry: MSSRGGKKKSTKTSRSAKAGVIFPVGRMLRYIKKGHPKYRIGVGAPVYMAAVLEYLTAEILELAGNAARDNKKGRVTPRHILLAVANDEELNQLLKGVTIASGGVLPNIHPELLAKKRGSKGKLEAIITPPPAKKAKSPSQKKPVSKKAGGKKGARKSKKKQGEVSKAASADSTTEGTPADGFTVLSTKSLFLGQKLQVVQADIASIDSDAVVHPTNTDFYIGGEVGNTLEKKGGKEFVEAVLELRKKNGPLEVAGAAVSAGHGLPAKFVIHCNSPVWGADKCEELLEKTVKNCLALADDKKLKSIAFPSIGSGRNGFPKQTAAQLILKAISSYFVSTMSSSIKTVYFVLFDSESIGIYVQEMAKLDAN
# EIF1, P41567, UniProt P41567, whole entry: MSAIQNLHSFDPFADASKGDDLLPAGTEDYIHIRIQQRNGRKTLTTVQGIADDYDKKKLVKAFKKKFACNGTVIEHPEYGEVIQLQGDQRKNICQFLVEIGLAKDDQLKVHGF
# NDUFA8, P51970, UniProt P51970, whole entry: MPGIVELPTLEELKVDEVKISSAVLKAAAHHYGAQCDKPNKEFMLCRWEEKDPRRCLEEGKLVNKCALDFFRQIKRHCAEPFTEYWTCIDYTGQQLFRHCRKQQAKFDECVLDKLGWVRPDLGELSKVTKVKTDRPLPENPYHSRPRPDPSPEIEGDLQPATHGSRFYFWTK
# DDX54, Q8TDD1, UniProt Q8TDD1, whole entry: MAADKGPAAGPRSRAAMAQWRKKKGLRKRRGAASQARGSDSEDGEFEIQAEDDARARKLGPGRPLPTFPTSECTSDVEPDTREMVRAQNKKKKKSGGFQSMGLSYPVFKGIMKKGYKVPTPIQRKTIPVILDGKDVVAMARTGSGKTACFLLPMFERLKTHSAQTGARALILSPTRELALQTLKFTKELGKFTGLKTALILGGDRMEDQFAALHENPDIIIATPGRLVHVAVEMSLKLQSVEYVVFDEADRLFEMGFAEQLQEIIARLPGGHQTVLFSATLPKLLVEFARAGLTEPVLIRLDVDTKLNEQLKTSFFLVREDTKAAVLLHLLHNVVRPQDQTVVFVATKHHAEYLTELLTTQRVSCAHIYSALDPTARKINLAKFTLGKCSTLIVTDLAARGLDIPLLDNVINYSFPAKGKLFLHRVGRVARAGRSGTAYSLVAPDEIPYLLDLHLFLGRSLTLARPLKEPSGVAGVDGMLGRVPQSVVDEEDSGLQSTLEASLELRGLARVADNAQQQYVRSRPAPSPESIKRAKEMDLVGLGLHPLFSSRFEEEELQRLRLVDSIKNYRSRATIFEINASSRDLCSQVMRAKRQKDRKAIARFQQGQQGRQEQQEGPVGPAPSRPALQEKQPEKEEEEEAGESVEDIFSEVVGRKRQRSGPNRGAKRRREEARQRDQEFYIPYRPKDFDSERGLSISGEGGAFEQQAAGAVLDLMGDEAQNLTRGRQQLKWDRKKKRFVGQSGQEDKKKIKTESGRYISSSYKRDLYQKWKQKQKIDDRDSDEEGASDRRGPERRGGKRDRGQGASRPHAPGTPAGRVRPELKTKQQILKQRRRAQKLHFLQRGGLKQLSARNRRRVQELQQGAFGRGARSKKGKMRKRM
# PRMT5, O14744, UniProt O14744, whole entry: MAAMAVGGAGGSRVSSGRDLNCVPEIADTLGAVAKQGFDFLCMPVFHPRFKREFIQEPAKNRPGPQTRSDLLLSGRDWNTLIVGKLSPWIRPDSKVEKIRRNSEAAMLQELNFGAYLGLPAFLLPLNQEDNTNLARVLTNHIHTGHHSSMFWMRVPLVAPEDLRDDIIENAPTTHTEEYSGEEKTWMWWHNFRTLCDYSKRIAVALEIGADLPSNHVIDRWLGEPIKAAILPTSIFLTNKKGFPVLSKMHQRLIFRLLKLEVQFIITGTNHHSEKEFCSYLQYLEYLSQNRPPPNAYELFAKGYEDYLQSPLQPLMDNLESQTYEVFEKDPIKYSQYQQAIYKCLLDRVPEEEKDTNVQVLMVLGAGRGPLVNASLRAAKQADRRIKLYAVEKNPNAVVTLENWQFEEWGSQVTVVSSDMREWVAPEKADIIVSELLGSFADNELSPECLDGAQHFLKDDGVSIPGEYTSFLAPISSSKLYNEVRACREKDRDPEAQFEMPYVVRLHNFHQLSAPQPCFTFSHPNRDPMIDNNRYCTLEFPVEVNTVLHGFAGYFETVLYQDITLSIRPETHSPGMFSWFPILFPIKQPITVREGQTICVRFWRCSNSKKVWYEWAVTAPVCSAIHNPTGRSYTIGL
# The list shows a part of the results. The list holds hits alone, and they repeat only in part.
# Experiments:
# Experiment in all cases: PRISMA enrichment of interactor (LFQ) in peptide spot vs all other peptide spots (log2 fold change); higher = stronger / more specific binding of the interactor to the peptide
# [1] = target: CHMP2A, O43633
# Description: (§1)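 PRISMA: 15-aa overlapping tiles (offset 8 aa) of 60 microproteins, plus SOS1/GLUT1 control peptides, were spot-synthesized on cellulose membranes in triplicate. Membranes were incubated with benzonase-treated HEK293T lysate, and bound proteins were identified by LC-MS/MS with LFQ. Enrichment is the log2 fold change of each protein in one spot versus all other spots. Only interactors passing the significance cutoff are listed.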
# [2] = target: GATAD2A, Q86YP4
# Description: as §1
# [3] = target: METTL26, Q96S19
# Description: as §1
# [4] = target: NUTF2, P61970
# Description: as §1
# [5] = target: TSPYL1, Q9H0U9
# Description: as §1
# [6] = target: CHPT1, Q8WUD6
# Description: as §1
# [7] = target: DUS3L, Q96G46
# Description: as §1
# [8] = target: H2AFY, O75367
# Description: as §1
# [9] = target: HAGH, Q16775
# Description: as §1
# [10] = target: MRPL17, Q9NRX2
# Description: as §1
# [11] = target: MRPS6, P82932
# Description: as §1
# [12] = target: PGK1, P00558
# Description: as §1
# [13] = target: RCN2, Q14257
# Description: as §1
# [14] = target: RIOK2, Q9BVS4
# Description: as §1
# [15] = target: SARDH, Q9UL12
# Description: as §1
# [16] = target: SPCS2, Q15005
# Description: as §1
# [17] = target: VPS52, Q8N1B4
# Description: as §1
# [18] = target: CHTOP, Q9Y3Y2
# Description: as §1
# [19] = target: DDX5, P17844
# Description: as §1
# [20] = target: EIF1, P41567
# Description: as §1
# [21] = target: MMS19, Q96T76
# Description: as §1
# [22] = target: NDUFA8, P51970
# Description: as §1
# [23] = target: ODF2, Q5BJF6
# Description: as §1
# [24] = target: CIAO1, O76071
# Description: as §1
# [25] = target: DDX54, Q8TDD1
# Description: as §1
# [26] = target: DMAC2, Q9NW81
# Description: as §1
# [27] = target: MLIP, Q5VWP3
# Description: as §1
# [28] = target: NCBP3, Q53F19
# Description: as §1
# [29] = target: NFS1, Q9Y697
# Description: as §1
# [30] = target: PRMT5, O14744
# Description: as §1
# [31] = target: SMC3, Q9UQE7
# Description: as §1
# [32] = target: USO1, O60763
# Description: as §1
# [33] = target: XPOT, O43592
# Description: as §1
# [34] = target: ZC3HC1, Q86WB0
# Description: as §1
binder,measurement,setting,value
MLVATGQCSRCFMFT [DANCR],PRISMA enrichment of interactor (log2),[1],4.29
same,PRISMA enrichment of interactor (log2),[2],8.85
same,PRISMA enrichment of interactor (log2),[3],4.87
same,PRISMA enrichment of interactor (log2),[4],3.92
same,PRISMA enrichment of interactor (log2),[5],5.19
MECAGLRRLSFWSIC [PSMB8-AS1],PRISMA enrichment of interactor (log2),[6],6.07
same,PRISMA enrichment of interactor (log2),[7],5.35
same,PRISMA enrichment of interactor (log2),[8],4.74
same,PRISMA enrichment of interactor (log2),[9],7.39
same,PRISMA enrichment of interactor (log2),[10],4.21
same,PRISMA enrichment of interactor (log2),[11],5.41
same,PRISMA enrichment of interactor (log2),[12],4.91
same,PRISMA enrichment of interactor (log2),[13],5.61
same,PRISMA enrichment of interactor (log2),[14],4.65
same,PRISMA enrichment of interactor (log2),[15],4.47
same,PRISMA enrichment of interactor (log2),[16],5.93
same,PRISMA enrichment of interactor (log2),[17],4.12
GAGGWLVVGFLLCLF [TUG1],PRISMA enrichment of interactor (log2),[18],5.32
same,PRISMA enrichment of interactor (log2),[19],4.59
same,PRISMA enrichment of interactor (log2),[20],5.21
same,PRISMA enrichment of interactor (log2),[21],4.58
same,PRISMA enrichment of interactor (log2),[22],4.68
same,PRISMA enrichment of interactor (log2),[23],5.38
CVLMRYDSLKVCGSS [RP11-12K22.1],PRISMA enrichment of interactor (log2),[24],4.41
same,PRISMA enrichment of interactor (log2),[25],6.29
same,PRISMA enrichment of interactor (log2),[26],4.98
same,PRISMA enrichment of interactor (log2),[27],5.11
same,PRISMA enrichment of interactor (log2),[28],5.2
same,PRISMA enrichment of interactor (log2),[29],6.91
same,PRISMA enrichment of interactor (log2),[23],9.79
same,PRISMA enrichment of interactor (log2),[30],4.97
same,PRISMA enrichment of interactor (log2),[31],4.7
same,PRISMA enrichment of interactor (log2),[32],6.97
same,PRISMA enrichment of interactor (log2),[33],3.99
same,PRISMA enrichment of interactor (log2),[34],5.36

# Fetched one by one from the entries so far:
binder,measurement,setting,value
MECAGLRRLSFWSIC [PSMB8-AS1],PRISMA enrichment of interactor (log2),[7],5.35
GAGGWLVVGFLLCLF [TUG1],PRISMA enrichment of interactor (log2),[18],5.32
CVLMRYDSLKVCGSS [RP11-12K22.1],PRISMA enrichment of interactor (log2),[31],4.7
